From US20230312724A1
Results are given in words; binding and its absence hold for the method and conditions named. Some results given as binding are weak or reduced against the parent protein; the word gives no strength.

By UniProt entry, the sequences of proteins in these tests, tags left out. Where a name states a change or a piece, a line headed by the entry shows the natural chain unless it says otherwise.
UniProt Q7Z7D3: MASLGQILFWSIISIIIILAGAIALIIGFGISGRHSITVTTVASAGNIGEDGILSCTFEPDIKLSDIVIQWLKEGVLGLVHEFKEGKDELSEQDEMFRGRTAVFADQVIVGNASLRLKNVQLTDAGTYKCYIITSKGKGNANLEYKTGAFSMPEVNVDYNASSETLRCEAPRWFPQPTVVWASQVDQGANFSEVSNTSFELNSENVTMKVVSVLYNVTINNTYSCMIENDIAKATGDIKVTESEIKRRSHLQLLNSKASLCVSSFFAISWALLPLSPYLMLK
UniProt Q7TSP5: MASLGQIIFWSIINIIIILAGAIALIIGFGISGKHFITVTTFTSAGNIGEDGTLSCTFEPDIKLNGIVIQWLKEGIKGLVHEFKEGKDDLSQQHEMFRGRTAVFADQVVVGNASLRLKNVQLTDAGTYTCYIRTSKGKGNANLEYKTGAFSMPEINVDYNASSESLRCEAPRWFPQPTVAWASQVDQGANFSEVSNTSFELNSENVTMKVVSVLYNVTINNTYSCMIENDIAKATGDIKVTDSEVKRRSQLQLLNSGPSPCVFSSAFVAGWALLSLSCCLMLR

Columns and labels:
[1] = molecular target: human B7-H4-Fc (human); assay: ELISA (FIG. 30A)
[2] = molecular target: human B7-H4-his (human) (UniProt Q7Z7D3); assay: ELISA (FIG. 30C)
[3] = molecular target: mouse B7-H4-his (mouse) (UniProt Q7TSP5); assay: ELISA (FIG. 30D)
[4] = molecular target: human B7-H4-Fc (human); assay: ELISA on coated hB7-H4-Fc
[5] = molecular target: IgV domain of human B7-H4-Fc (human); assay: ELISA and SPR (FIG. 22, Table 14)
[6] = molecular target: IgV domain of mouse B7-H4-Fc (mouse; human); assay: ELISA and SPR (FIG. 22, Table 14)
[7] = molecular target: human B7-H4-his (human) (UniProt Q7Z7D3); assay: ELISA on coated hB7-H4-his
[8] = molecular target: mouse B7-H4-his (mouse) (UniProt Q7TSP5); assay: ELISA on coated mB7-H4-his
[9] = molecular target: human B7-H4-Fc (human); assay: ELISA on coated human B7-H4Fc
[10] = molecular target: human B7-H4-his (human) (UniProt Q7Z7D3); assay: ELISA on coated human B7-H4his
[11] = molecular target: mouse B7-H4-his (mouse) (UniProt Q7TSP5); assay: ELISA on coated mouse B7-H4his
[12] = molecular target: IgV domain of human B7-H4-Fc (human); assay: ELISA on coated IgV domain of hB7-H4
[13] = molecular target: IgV domain of mouse B7-H4-Fc (mouse; human); assay: ELISA on coated IgV domain of mB7-H4

Row | binding [1] | binding [2] | binding [3] | binding [4] | binding [5] | binding [6] | binding [7] | binding [8] | binding [9] | binding [10] | binding [11] | binding [12] | binding [13] | Substance
1 | binds | binds | binds | binds | binds | binds | binds | binds | binds | binds | binds | binds | binds | 39A11/57G8-IL15 (from UniProt P0DOX5 1-449; P0DOX7 1-214)
2 | binds | binds | binds |  |  |  |  |  | binds | binds | binds |  |  | 39A11/57G8-IL15-LS (from UniProt P0DOX5 1-449; P0DOX7 1-214)
